Experimental data published in patent US9315532B2, “Fatty acid carbohydrate hybrid molecules as therapeutic agents and methods thereof” (The Johns Hopkins University, priority 2005, dated 2016).
Entries after “also recorded” stand apart in the source; their conditions may differ. Some results were stated once for a whole list of compounds, not compound by compound. Some compounds share one range, which may span the group rather than tell each member.

What was measured:
Format in all cases: cell-based, human
p21WAF1/Cip1 promoter = assay: Luc-p21WAF1/Cip1 luciferase reporter gene assay in AD293 (HEK) cells; details: 72 h
Method: The plasmid Luc-p21^Cip1/WAF1 (a gift from Vogelstein Laboratory, JHMI, Baltimore, Md.) was amplified and purified utilizing a plasmid maxi kit (Cat. No. 12163. Qiagen, Valencia, Calif.) following the manufacturer's protocol. HEK cells (2.5×10^5) were seeded in 3.0 mL medium and grown in 6-well T. C. plates. Transfection was performed using lipofectamine 2000 (Cat. No. 11668-019, Invitrogen, Carlsbad, Calif.) following the protocol supplier's protocol. Cells were trypsinized 24 h after transfection and seeded at 250,000 cells per well with concentrations of 1-4 shown in FIG. 3a or 1, 5, and ManNAc plus 5 at the concentrations shown in FIG. 3c. After 72 h, the cells were trypsinized, counted and lysed in 300 μL of luciferase cell culture lysis buffer and diluted five-fold in the same buffer. Luminometry was performed utilizing the ‘Luciferase Assay System’ (Cat. No. 1500, 4550, Promega, Madison, Wis.) following supplier's protocol. Luciferase Assay Reagent (100 μL) was added to the cell lysate (20 μL) in luminometer tubes (Cat. No. 55.476, Sarstedt, Newton, N.C.) and the luminescence was measured immediately using a Berthold Sirius Luminometer. The final values were normalized relative to ethanol-treated controls and reported on a per cell basis.

Jurkat cells [1] = assay: Toxicity and growth inhibition assays (cell counts on days 3, 5 and 15); details: 0-320 μM; for cell proliferation at early time points (days 3 & 5): days 3 and 5
Method: For cell culture studies, But4ManNAc (1) (50) was used as a mixture of anomers (α/β=10/90), But4GlcNAc (2) as pure α-anomer and But5Man (3) as pure β-anomer (It is noteworthy that the intracellular hydrolysis of butyrate esters makes the anomeric configuration less relevant in these studies and we found similar cellular effects between the α- and β-anomers in long term toxicity). Stock solutions of the sugar analogs were made in ethanol at concentrations of 10 mM and 50 mM. In the case of cells growing in suspension the solutions of 1-4 (or an ethanol control at an equivalent volume) were coated onto dishes and the ethanol was allowed to evaporate prior to plating. Unless otherwise noted, throughout this study Jurkat cells (Clone E-6, ATCC, Manassas, Va.) were cultured in RPMI 1640 medium supplemented with 300 mg/L glutamine, 5.0% fetal bovine serum (HyClone, Logan, Utah) and 1.0% of a 100× dilution of a pen/strep stock solution containing penicillin (100 units/mL) and streptomycin (100 μg/mL); HL-60 cells (ATCC, Manassas, Va.) were cultured in RPMI 1640 medium supplemented with 10% FBS and pen/strep; and AD293 (HEK) cells (Stratagene, La Jolla, Calif.) were grown in DMEM medium with 10% FBS and pen/strep. In all cases, cells were incubated in a standard 37° C. in a 5.0% CO2, water-saturated environment. Cell counting was performed with a Beckman-Coulter Z2 particle counter and hemacytometer.
Solutions of the analogs in EtOH (10 mM stock) were coated onto 24-well plates at a range of concentrations from 0-320 μM and ethanol was allowed to evaporate. Jurkat cells (1.0×10^5 cells) in 0.5 mL of medium were plated in each well (day 0). On days 3 and 5, fresh medium (1.0 mL) was added to each well. Cell cultures were mixed by gentle pipetting and 100 μL of cell suspension was taken from each well and counted. On days 7, 9, 11, 13 and 15, 1.0 mL of cell suspension was removed from each well after thorough mixing and fresh medium (1.0 mL) was added. Cells were counted on day 15 and the cell density was plotted as a percentage of control (as was done for cell counts from days 3 and 5).

Jurkat cells [2] = assay: Flow cytometry analysis of cell cycle status (PI/RNase A); details: 200 μM, 5 days
Method: The cell cycle arrest induced by butyrate analogs was studied following the standard protocol (49). Briefly, Jurkat cells (2.3×10^5 cells/mL) were incubated with various concentrations of 1 (0, 25, 50, 75, 100, 150 and 200 μM); 2 (200 μM); 3 (200 μM); and 4 (200 μM) for five days. The cells were then harvested, counted, washed twice with PBS, re-suspended in PBS (500 μL), added to a cold solution of 78% aqueous ethanol (4.5 mL) using a glass Pasteur pipette and kept at 2.0° C. for at least 24 h. The fixed cells were centrifuged twice to remove the ethanol completely, re-suspended in propidium iodide (PI)/ribonuclease A (RNase A) staining buffer (BD Pharmingen, Catalog No. 550825, San Diego, Calif.) (500 μL for 1.0×10^6 cells), incubated at 37° C. for 15 min and analyzed by flow cytometry. The cellular aggregates were excluded from single cell populations using an area-width plot (FL2—PT fluorescence) for the cell cycle status determination. At least 10,000 gated events were counted for each determination.
Jurkat cells (2.5×10^5 cells/mL) were incubated with either ethanol (0.2%) or 1 (100 μM or 200 μM). Aliquots of cell suspensions were taken on day 0 and days 2-6, washed with PBS (twice) and fixed in 75% ethanol at 2.0° C. for at least 48 h. The cells were stained with PI/RNase staining buffer and analyzed by flow cytometry as given above.

CCCC(=O)[O-].[Na+] [compound 5, Sodium n-butyrate, reference compound]
luc-p21WAF1/Cip1 luciferase expression (p21WAF1/Cip1 promoter): activated

CCCC(=O)OC[C@H]1OC(OC(=O)CCC)[C@@H](OC(=O)CCC)[C@@H](OC(=O)CCC)[C@@H]1OC(=O)CCC (stereo partly drawn) [compound 3, 1,2,3,4,6-Penta-O-butanoyl-α,β-D-mannopyranose]
long term growth characteristics (day 15) (Jurkat cells [1]): resumed robust growth | cell proliferation at early time points (days 3 & 5) (Jurkat cells [1]): dramatically reduced cell proliferation | luc-p21WAF1/Cip1 luciferase expression (p21WAF1/Cip1 promoter): increased in a dose dependent manner; also recorded: activated | cell cycle status / apoptosis (Jurkat cells [2]): cell accumulation at the G2/M stage occurred after incubation with 2-4 (5 days, 200 μM) without measurable apoptosis

CCCC(=O)OC[C@H]1OC(OC(=O)CCC)[C@@H](NC(C)=O)[C@@H](OC(=O)CCC)[C@@H]1OC(=O)CCC (stereo partly drawn) [compound 1, 2-Acetylamino-2-deoxy-1,3,4,6-tetra-O-butanoyl-α,β-D-mannopyranoside]
cell proliferation at early time points (days 3 & 5) (Jurkat cells [1]): dramatically reduced cell proliferation | luc-p21WAF1/Cip1 luciferase expression (p21WAF1/Cip1 promoter): increased in a dose dependent manner; also recorded: activated

CCCC(=O)OC[C@H]1O[C@H](OC(=O)CCC)[C@H](NC(C)=O)[C@@H](OC(=O)CCC)[C@@H]1OC(=O)CCC [compound 2, 2-Acetamido-1,3,4,6-tetra-O-butanoyl-2-deoxy-α-D-glucopyranose]
long term growth characteristics (day 15) (Jurkat cells [1]): resumed robust growth | cell proliferation at early time points (days 3 & 5) (Jurkat cells [1]): dramatically reduced cell proliferation | luc-p21WAF1/Cip1 luciferase expression (p21WAF1/Cip1 promoter): increased in a dose dependent manner; also recorded: activated | cell cycle status / apoptosis (Jurkat cells [2]): cell accumulation at the G2/M stage occurred after incubation with 2-4 (5 days, 200 μM) without measurable apoptosis

CCCC(=O)OCC(COC(=O)CCC)OC(=O)CCC [compound 4, tributyrin, reference compound]
long term growth characteristics (day 15) (Jurkat cells [1]): resumed robust growth | luc-p21WAF1/Cip1 luciferase expression (p21WAF1/Cip1 promoter): increased in a dose dependent manner; also recorded: activated | cell cycle status / apoptosis (Jurkat cells [2]): cell accumulation at the G2/M stage occurred after incubation with 2-4 (5 days, 200 μM) without measurable apoptosis
